Results are given in words; binding and its absence hold for the method and conditions named. Binding seen in cells or lysates may run through a third protein. Some results given as binding are weak or reduced against the parent protein; the word gives no strength. For some assays here: Sequences can lack the tags named with a protein.
Tests used:
[1] = target: Rhs1^NT, 29-kDa N-terminal autocleavage fragment of Rhs1 (Photorhabdus laumondii (P. luminescens subsp. laumondii TTO1)) (UniProt Q7N9I0); assay: pull-down; two proteins co-produced in E. coli BL21(DE3) (Strep-tagged EagR with FLAG-tagged Rhs1 or with His6-tagged VgrG); cleared cell extract on Strep-Tactin resin, 1 h at 4 °C, buffer A (50 mM Tris-HCl pH 8.5, 250 mM NaCl, 1 mM TCEP), eluted with 2.5 mM desthiobiotin; Coomassie and immunoblot
[2] = target: T1, Photorhabdus laumondii EagR chaperone (Plu0354), C-terminally Strep-tagged (Photorhabdus laumondii (P. luminescens subsp. laumondii TTO1)) (UniProt Q7N9H9); assay: as above
T1 sequence: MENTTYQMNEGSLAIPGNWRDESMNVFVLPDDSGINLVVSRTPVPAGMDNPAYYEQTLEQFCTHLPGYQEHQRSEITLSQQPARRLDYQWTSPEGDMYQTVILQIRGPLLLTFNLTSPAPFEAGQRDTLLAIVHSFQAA

Chains of the proteins cited; added tags and fusions are not shown. Residues count along the entry.
Rhs1^NT, 29-kDa N-terminal autocleavage fragment of Rhs1 (Q7N9I0, residues 1-289): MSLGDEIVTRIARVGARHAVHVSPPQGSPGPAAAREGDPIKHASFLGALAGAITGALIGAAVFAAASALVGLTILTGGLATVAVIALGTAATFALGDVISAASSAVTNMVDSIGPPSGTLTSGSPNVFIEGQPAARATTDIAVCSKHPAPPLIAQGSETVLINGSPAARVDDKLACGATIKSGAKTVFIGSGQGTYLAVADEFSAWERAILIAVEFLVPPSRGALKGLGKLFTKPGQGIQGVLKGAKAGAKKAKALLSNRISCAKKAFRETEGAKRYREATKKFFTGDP
Rhs1^Shell, ~120-kDa central autocleavage fragment of Rhs1 (Q7N9I0, residues 290-1342): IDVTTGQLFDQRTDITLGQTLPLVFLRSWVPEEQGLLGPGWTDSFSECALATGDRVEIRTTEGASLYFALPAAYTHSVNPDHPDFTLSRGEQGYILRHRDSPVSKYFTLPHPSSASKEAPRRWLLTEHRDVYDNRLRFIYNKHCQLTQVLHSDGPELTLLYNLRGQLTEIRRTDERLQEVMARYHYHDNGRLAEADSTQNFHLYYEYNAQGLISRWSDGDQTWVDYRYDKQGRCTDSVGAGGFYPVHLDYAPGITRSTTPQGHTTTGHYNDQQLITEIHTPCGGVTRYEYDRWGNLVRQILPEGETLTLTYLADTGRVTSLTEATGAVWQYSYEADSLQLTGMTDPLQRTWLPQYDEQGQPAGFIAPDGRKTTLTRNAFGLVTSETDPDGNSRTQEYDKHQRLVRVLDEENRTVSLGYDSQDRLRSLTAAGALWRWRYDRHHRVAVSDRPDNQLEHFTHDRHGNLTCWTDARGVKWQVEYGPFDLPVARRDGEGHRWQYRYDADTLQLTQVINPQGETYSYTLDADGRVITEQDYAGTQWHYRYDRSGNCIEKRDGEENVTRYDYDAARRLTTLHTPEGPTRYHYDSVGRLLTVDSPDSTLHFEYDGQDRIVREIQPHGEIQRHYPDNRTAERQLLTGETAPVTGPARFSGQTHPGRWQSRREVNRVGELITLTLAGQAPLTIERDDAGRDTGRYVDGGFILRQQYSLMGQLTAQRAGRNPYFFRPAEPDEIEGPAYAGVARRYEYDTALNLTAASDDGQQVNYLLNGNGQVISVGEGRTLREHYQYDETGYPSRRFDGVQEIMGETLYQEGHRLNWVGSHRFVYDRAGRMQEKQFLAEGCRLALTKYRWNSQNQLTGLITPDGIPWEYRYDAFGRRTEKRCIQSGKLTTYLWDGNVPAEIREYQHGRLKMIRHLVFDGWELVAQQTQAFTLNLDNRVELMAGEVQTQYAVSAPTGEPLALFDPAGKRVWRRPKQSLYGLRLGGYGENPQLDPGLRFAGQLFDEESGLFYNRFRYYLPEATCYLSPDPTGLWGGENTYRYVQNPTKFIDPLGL

Substance | binding [1] | binding [2]
Rhs1^Shell, ~120-kDa central autocleavage fragment of Rhs1 (from UniProt Q7N9I0 290-1342) (domain or fragment) | binds | –
Rhs1^NT, 29-kDa N-terminal autocleavage fragment of Rhs1 (from UniProt Q7N9I0 1-289) (domain or fragment) | – | binds
